{"source": "PubChem BioAssay AID1159584 (Peter MacCallum Cancer Centre, 2016)", "screen": "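Genes whose loss is lethal only together with E-cadherin loss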 (primary screen)", "cell system": "human MCF10A breast epithelial cells, parental and CDH1-null", "reagent": "siRNA against human genes", "measured": "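Cell viability by CellTiter-Glo ATP luminescence, each line scaled to the mean of mock wells across plates, then CDH1-null over parental ratio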", "scale": "CDH1-null / parental viability ratio: higher = CDH1-null cells survive relatively better than parental", "note": "The whole screen tested about 18,000 reagents; shown is a part drawn at random. Further read-outs or replicates are left out here. Not given: the amount of reagent, the time to read-out."}
{"target gene": "MUC4 (mucin 4, cell surface associated)", "CDH1-null / parental viability ratio": 1.49}
{"target gene": "SNRNP48 (small nuclear ribonucleoprotein U11/U12 subunit 48)", "CDH1-null / parental viability ratio": 1.02}
{"target gene": "CEPT1 (choline/ethanolamine phosphotransferase 1)", "CDH1-null / parental viability ratio": 1.02}
{"target gene": "BTNL2 (butyrophilin like 2)", "CDH1-null / parental viability ratio": 0.58}
{"target gene": "SPRR1A (small proline rich protein 1A)", "CDH1-null / parental viability ratio": 0.83}
{"target gene": "SCN5A (sodium voltage-gated channel alpha subunit 5)", "CDH1-null / parental viability ratio": 1.22}
{"target gene": "TNXB (tenascin XB)", "CDH1-null / parental viability ratio": 0.8}
{"target gene": "TRPV5", "CDH1-null / parental viability ratio": 1.22}
{"target gene": "PRKRA", "CDH1-null / parental viability ratio": 1.3}
{"target gene": "RBBP6 (RB binding protein 6, ubiquitin ligase)", "CDH1-null / parental viability ratio": 1.04}
{"target gene": "GNB3 (G protein subunit beta 3)", "CDH1-null / parental viability ratio": 0.98}
{"target gene": "MAP4K5 (mitogen-activated protein kinase kinase kinase kinase 5)", "CDH1-null / parental viability ratio": 1}
{"target gene": "SNX22 (sorting nexin 22)", "CDH1-null / parental viability ratio": 1.18}
{"target gene": "LTAP1 (lipid transport auxiliary protein 1)", "CDH1-null / parental viability ratio": 0.98}
{"target gene": "TXNDC8 (thioredoxin domain containing 8)", "CDH1-null / parental viability ratio": 1.11}
{"target gene": "FAM13C (family with sequence similarity 13 member C)", "CDH1-null / parental viability ratio": 1.05}
{"target gene": "RFWD3 (ring finger and WD repeat domain 3)", "CDH1-null / parental viability ratio": 0.73}
{"target gene": "GDF6 (growth differentiation factor 6)", "CDH1-null / parental viability ratio": 1.26}
{"target gene": "KRTAP5-4 (keratin associated protein 5-4)", "CDH1-null / parental viability ratio": 0.68}
{"target gene": "LINC02903 (long independently transcribed non-coding RNA 2903)", "CDH1-null / parental viability ratio": 1.04}
{"target gene": "RHOBTB3 (Rho related BTB domain containing 3)", "CDH1-null / parental viability ratio": 0.9}
{"target gene": "SH3BP4 (SH3 domain binding protein 4)", "CDH1-null / parental viability ratio": 1.39}
{"target gene": "ITLN2 (intelectin 2)", "CDH1-null / parental viability ratio": 1.12}
{"target gene": "HERC2P3 (HERC2 pseudogene 3)", "CDH1-null / parental viability ratio": 1.39}
{"target gene": "GBE1 (1,4-alpha-glucan branching enzyme 1)", "CDH1-null / parental viability ratio": 1.21}
{"target gene": "RPL35 (ribosomal protein L35)", "CDH1-null / parental viability ratio": 1.24}
{"target gene": "HTRA4 (HtrA serine peptidase 4)", "CDH1-null / parental viability ratio": 1.06}
{"target gene": "OR2J2 (olfactory receptor family 2 subfamily J member 2)", "CDH1-null / parental viability ratio": 1.31}
{"target gene": "ENSA (endosulfine alpha)", "CDH1-null / parental viability ratio": 0.86}
{"target gene": "HOXC8 (homeobox C8)", "CDH1-null / parental viability ratio": 1.01}
{"target gene": "P3H3 (prolyl 3-hydroxylase 3)", "CDH1-null / parental viability ratio": 0.7}
{"target gene": "FLOT1 (flotillin 1)", "CDH1-null / parental viability ratio": 1.12}
{"target gene": "SEC22A (SEC22 homolog A, vesicle trafficking protein)", "CDH1-null / parental viability ratio": 0.98}
{"target gene": "SNRPA1 (small nuclear ribonucleoprotein polypeptide A')", "CDH1-null / parental viability ratio": 0.97}
{"target gene": "RAB27A (RAB27A, member RAS oncogene family)", "CDH1-null / parental viability ratio": 0.88}
{"target gene": "MTFR1 (mitochondrial fission regulator 1)", "CDH1-null / parental viability ratio": 0.99}
{"target gene": "MEGF11 (multiple EGF like domains 11)", "CDH1-null / parental viability ratio": 1}
{"target gene": "FGF9 (fibroblast growth factor 9)", "CDH1-null / parental viability ratio": 0.82}
{"target gene": "AP2A1 (adaptor related protein complex 2 subunit alpha 1)", "CDH1-null / parental viability ratio": 0.99}
{"target gene": "RRH (retinal pigment epithelium-derived rhodopsin homolog)", "CDH1-null / parental viability ratio": 0.69}
{"target gene": "SPRTN (SprT-like N-terminal domain)", "CDH1-null / parental viability ratio": 1.38}
{"target gene": "H3C4 (H3 clustered histone 4)", "CDH1-null / parental viability ratio": 1.37}
{"target gene": "EHD4 (EH domain containing 4)", "CDH1-null / parental viability ratio": 1.05}
{"target gene": "FGR (FGR proto-oncogene, Src family tyrosine kinase)", "CDH1-null / parental viability ratio": 0.76}
{"target gene": "TF (transferrin)", "CDH1-null / parental viability ratio": 1.27}

Records above whose target name begins with H or h:
{"target gene": "HERC2P3 (HERC2 pseudogene 3)", "CDH1-null / parental viability ratio": 1.39}
{"target gene": "HTRA4 (HtrA serine peptidase 4)", "CDH1-null / parental viability ratio": 1.06}
{"target gene": "HOXC8 (homeobox C8)", "CDH1-null / parental viability ratio": 1.01}
{"target gene": "H3C4 (H3 clustered histone 4)", "CDH1-null / parental viability ratio": 1.37}
